Assay results reported in the supplement of paper PMC4635364.
Structures can show the parent of a compound that is named as a salt. This is one part of the list. Single values are uncertain here, since repeats match poorly.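 Cells: ReNCell VM human fetal ventral-midbrain neural progenitors, differentiated mitogen-free. Blinded raters compared doublecortin-stained (early neurons) or tyrosine hydroxylase-stained (dopaminergic neurons) images with untreated wells, where 0 means no change. After repeats and both raters were averaged, compounds scoring 2 or above became hits for retesting.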

Key:
ReNCell VM [1] = test: neuronal differentiation score (DCX+ cell fraction vs untreated, manual image score) (score (-3 to 3)); higher = more neuronal differentiation; conditions: 2 uM, 2 weeks
ReNCell VM [2] = test: dopaminergic neuron differentiation score (TH+ cell fraction vs untreated, manual image score) (score (0 to 3)); higher = more TH+ dopaminergic neuron differentiation; conditions: 2 uM, 4 weeks, BDNF 10 ng/ml + GDNF 10 ng/ml

CN(C)CCCSC(=N)N [Dimaprit dihydrochloride]
inactive: neuronal differentiation score (ReNCell VM [1]; library: Prestwick) 0 | neuronal differentiation score (ReNCell VM [1]; library: Tocriscreen) 0 | dopaminergic neuron differentiation score (ReNCell VM [2]; library: Prestwick) 0 | dopaminergic neuron differentiation score (ReNCell VM [2]; library: Tocriscreen) 0

CSc1ccc2c(c1)N(CCC1CCCCN1C)c1ccccc1S2 (centres undefined) [Thioridazine hydrochloride]
inactive: neuronal differentiation score (ReNCell VM [1]; library: LOPAC) 0 | neuronal differentiation score (ReNCell VM [1]; library: Prestwick) 0 | dopaminergic neuron differentiation score (ReNCell VM [2]; library: LOPAC) 0 | dopaminergic neuron differentiation score (ReNCell VM [2]; library: Prestwick) 0

C[N+](C)(C)CCOC(N)=O [Carbachol]
inactive: neuronal differentiation score (ReNCell VM [1]; library: LOPAC) -1 | neuronal differentiation score (ReNCell VM [1]; library: Prestwick) 0 | dopaminergic neuron differentiation score (ReNCell VM [2]; library: LOPAC) 0 | dopaminergic neuron differentiation score (ReNCell VM [2]; library: Prestwick) 0

O=c1[nH]c2cc(Cl)ccc2c(O)c1-c1cccc(Oc2ccccc2)c1
inactive: neuronal differentiation score (ReNCell VM [1]; library: LOPAC) 0 | neuronal differentiation score (ReNCell VM [1]; library: Tocriscreen) 0 | dopaminergic neuron differentiation score (ReNCell VM [2]; library: LOPAC) 0 | dopaminergic neuron differentiation score (ReNCell VM [2]; library: Tocriscreen) 0

CC(C)NCC(O)c1ccc(NS(C)(=O)=O)cc1 (centres undefined) [Sotalol hydrochloride]
inactive: neuronal differentiation score (ReNCell VM [1]; library: Prestwick) 1 | neuronal differentiation score (ReNCell VM [1]; library: Tocriscreen) 1 | dopaminergic neuron differentiation score (ReNCell VM [2]; library: Prestwick) 0 | dopaminergic neuron differentiation score (ReNCell VM [2]; library: Tocriscreen) 0

CC(C)(C)c1ccc(S(=O)(=O)/C=C/C#N)cc1
inactive: neuronal differentiation score (ReNCell VM [1]; library: LOPAC) 1 | neuronal differentiation score (ReNCell VM [1]; library: Tocriscreen) 0 | dopaminergic neuron differentiation score (ReNCell VM [2]; library: LOPAC) 0 | dopaminergic neuron differentiation score (ReNCell VM [2]; library: Tocriscreen) 0

c1ccc2c(CC3=NCCN3)cccc2c1 [Naphazoline hydrochloride]
inactive: neuronal differentiation score (ReNCell VM [1]; library: LOPAC) 0 | neuronal differentiation score (ReNCell VM [1]; library: Prestwick) 0 | dopaminergic neuron differentiation score (ReNCell VM [2]; library: LOPAC) 0 | dopaminergic neuron differentiation score (ReNCell VM [2]; library: Prestwick) 0

Cn1ccc2cc(NC(=O)Nc3cccnc3)ccc21
inactive: neuronal differentiation score (ReNCell VM [1]; library: LOPAC) 0 | neuronal differentiation score (ReNCell VM [1]; library: Tocriscreen) 1 | dopaminergic neuron differentiation score (ReNCell VM [2]; library: LOPAC) 0 | dopaminergic neuron differentiation score (ReNCell VM [2]; library: Tocriscreen) 0

CCN(CC)CCOC(=O)C1(C2CCCCC2)CCCCC1 [Dicyclomine hydrochloride]
inactive: neuronal differentiation score (ReNCell VM [1]; library: LOPAC) 1 | neuronal differentiation score (ReNCell VM [1]; library: Prestwick) 0 | dopaminergic neuron differentiation score (ReNCell VM [2]; library: LOPAC) 0 | dopaminergic neuron differentiation score (ReNCell VM [2]; library: Prestwick) 0

Cn1c(=O)c2nc[nH]c2n(C)c1=O [Theophylline monohydrate]
inactive: neuronal differentiation score (ReNCell VM [1]; library: Phytochemical) 0 | neuronal differentiation score (ReNCell VM [1]; library: Prestwick) 0 | dopaminergic neuron differentiation score (ReNCell VM [2]; library: Phytochemical) 0 | dopaminergic neuron differentiation score (ReNCell VM [2]; library: Prestwick) 0

Nc1c(Br)cc(Br)cc1CN[C@H]1CC[C@H](O)CC1 [Ambroxol hydrochloride]
inactive: neuronal differentiation score (ReNCell VM [1]; library: Prestwick) 0 | neuronal differentiation score (ReNCell VM [1]; library: Tocriscreen) 0 | dopaminergic neuron differentiation score (ReNCell VM [2]; library: Prestwick) 0 | dopaminergic neuron differentiation score (ReNCell VM [2]; library: Tocriscreen) 0

C[C@]12CC[C@@H]3c4ccc(O)cc4C[C@@H](CCCCCCCCC[S+]([O-])CCCC(F)(F)C(F)(F)F)[C@H]3[C@@H]1CC[C@@H]2O (some centres undefined) [Fulvestrant]
inactive: neuronal differentiation score (ReNCell VM [1]; library: LOPAC) 0 | neuronal differentiation score (ReNCell VM [1]; library: Prestwick) 0 | dopaminergic neuron differentiation score (ReNCell VM [2]; library: LOPAC) 0 | dopaminergic neuron differentiation score (ReNCell VM [2]; library: Prestwick) 0

C[C@@]1(O)CCOC(=O)C1 [Mevalonic-D, L acid lactone]
inactive: neuronal differentiation score (ReNCell VM [1]; library: Phytochemical) 0 | neuronal differentiation score (ReNCell VM [1]; library: Prestwick) 0 | dopaminergic neuron differentiation score (ReNCell VM [2]; library: Phytochemical) 0 | dopaminergic neuron differentiation score (ReNCell VM [2]; library: Prestwick) 0

O=C(O)CCc1nc(-c2ccccc2)c(-c2ccccc2)o1 [Oxaprozin]
inactive: neuronal differentiation score (ReNCell VM [1]; library: LOPAC) 0 | neuronal differentiation score (ReNCell VM [1]; library: Prestwick) 0 | dopaminergic neuron differentiation score (ReNCell VM [2]; library: LOPAC) 0 | dopaminergic neuron differentiation score (ReNCell VM [2]; library: Prestwick) 0

O=C(O)/C=C/c1ccc(Cn2ccnc2)cc1 [Ozagrel hydrochloride]
inactive: neuronal differentiation score (ReNCell VM [1]; library: Prestwick) 0 | neuronal differentiation score (ReNCell VM [1]; library: Tocriscreen) 0 | dopaminergic neuron differentiation score (ReNCell VM [2]; library: Prestwick) 0 | dopaminergic neuron differentiation score (ReNCell VM [2]; library: Tocriscreen) 0

NS(=O)(=O)c1cc2c(cc1Cl)NCNS2(=O)=O [Hydrochlorothiazide]
inactive: neuronal differentiation score (ReNCell VM [1]; library: LOPAC) 0 | neuronal differentiation score (ReNCell VM [1]; library: Prestwick) 0 | dopaminergic neuron differentiation score (ReNCell VM [2]; library: LOPAC) 0 | dopaminergic neuron differentiation score (ReNCell VM [2]; library: Prestwick) 0

Cc1ccccc1C(OCCN(C)C)c1ccccc1 (centres undefined) [Orphenadrine hydrochloride]
inactive: neuronal differentiation score (ReNCell VM [1]; library: LOPAC) 0 | neuronal differentiation score (ReNCell VM [1]; library: Prestwick) 0 | dopaminergic neuron differentiation score (ReNCell VM [2]; library: LOPAC) 0 | dopaminergic neuron differentiation score (ReNCell VM [2]; library: Prestwick) 0

CCCNCC(O)COc1ccccc1C(=O)CCc1ccccc1 (centres undefined) [Propafenone hydrochloride]
inactive: neuronal differentiation score (ReNCell VM [1]; library: LOPAC) 0 | neuronal differentiation score (ReNCell VM [1]; library: Prestwick) 0 | dopaminergic neuron differentiation score (ReNCell VM [2]; library: LOPAC) 0 | dopaminergic neuron differentiation score (ReNCell VM [2]; library: Prestwick) 0

CC(C(=O)O)c1cccc(C(=O)c2ccccc2)c1 (centres undefined) [Ketoprofen]
inactive: neuronal differentiation score (ReNCell VM [1]; library: LOPAC) 0 | neuronal differentiation score (ReNCell VM [1]; library: Prestwick) 0 | dopaminergic neuron differentiation score (ReNCell VM [2]; library: LOPAC) 0 | dopaminergic neuron differentiation score (ReNCell VM [2]; library: Prestwick) 0

Sorted by number of heavy atoms (largest number first): seven of the compounds above.
O=c1[nH]c2cc(Cl)ccc2c(O)c1-c1cccc(Oc2ccccc2)c1
inactive: neuronal differentiation score (ReNCell VM [1]; library: LOPAC) 0 | neuronal differentiation score (ReNCell VM [1]; library: Tocriscreen) 0 | dopaminergic neuron differentiation score (ReNCell VM [2]; library: LOPAC) 0 | dopaminergic neuron differentiation score (ReNCell VM [2]; library: Tocriscreen) 0

CSc1ccc2c(c1)N(CCC1CCCCN1C)c1ccccc1S2 (centres undefined) [Thioridazine hydrochloride]
inactive: neuronal differentiation score (ReNCell VM [1]; library: LOPAC) 0 | neuronal differentiation score (ReNCell VM [1]; library: Prestwick) 0 | dopaminergic neuron differentiation score (ReNCell VM [2]; library: LOPAC) 0 | dopaminergic neuron differentiation score (ReNCell VM [2]; library: Prestwick) 0

CCN(CC)CCOC(=O)C1(C2CCCCC2)CCCCC1 [Dicyclomine hydrochloride]
inactive: neuronal differentiation score (ReNCell VM [1]; library: LOPAC) 1 | neuronal differentiation score (ReNCell VM [1]; library: Prestwick) 0 | dopaminergic neuron differentiation score (ReNCell VM [2]; library: LOPAC) 0 | dopaminergic neuron differentiation score (ReNCell VM [2]; library: Prestwick) 0

Cn1ccc2cc(NC(=O)Nc3cccnc3)ccc21
inactive: neuronal differentiation score (ReNCell VM [1]; library: LOPAC) 0 | neuronal differentiation score (ReNCell VM [1]; library: Tocriscreen) 1 | dopaminergic neuron differentiation score (ReNCell VM [2]; library: LOPAC) 0 | dopaminergic neuron differentiation score (ReNCell VM [2]; library: Tocriscreen) 0

CC(C(=O)O)c1cccc(C(=O)c2ccccc2)c1 (centres undefined) [Ketoprofen]
inactive: neuronal differentiation score (ReNCell VM [1]; library: LOPAC) 0 | neuronal differentiation score (ReNCell VM [1]; library: Prestwick) 0 | dopaminergic neuron differentiation score (ReNCell VM [2]; library: LOPAC) 0 | dopaminergic neuron differentiation score (ReNCell VM [2]; library: Prestwick) 0

Nc1c(Br)cc(Br)cc1CN[C@H]1CC[C@H](O)CC1 [Ambroxol hydrochloride]
inactive: neuronal differentiation score (ReNCell VM [1]; library: Prestwick) 0 | neuronal differentiation score (ReNCell VM [1]; library: Tocriscreen) 0 | dopaminergic neuron differentiation score (ReNCell VM [2]; library: Prestwick) 0 | dopaminergic neuron differentiation score (ReNCell VM [2]; library: Tocriscreen) 0

Cn1c(=O)c2nc[nH]c2n(C)c1=O [Theophylline monohydrate]
inactive: neuronal differentiation score (ReNCell VM [1]; library: Phytochemical) 0 | neuronal differentiation score (ReNCell VM [1]; library: Prestwick) 0 | dopaminergic neuron differentiation score (ReNCell VM [2]; library: Phytochemical) 0 | dopaminergic neuron differentiation score (ReNCell VM [2]; library: Prestwick) 0

Following part:

Cn1cnc2c(NCc3ccccc3)nc(NCCO)nc21 [Olomoucine]
inactive: neuronal differentiation score (ReNCell VM [1]; library: LOPAC) 0 | neuronal differentiation score (ReNCell VM [1]; library: Tocriscreen) 0 | dopaminergic neuron differentiation score (ReNCell VM [2]; library: LOPAC) 0 | dopaminergic neuron differentiation score (ReNCell VM [2]; library: Tocriscreen) 0

CN(C)CCCN1c2ccccc2Sc2ccc(C(F)(F)F)cc21 [Triflupromazine hydrochloride]
inactive: neuronal differentiation score (ReNCell VM [1]; library: LOPAC) 0 | neuronal differentiation score (ReNCell VM [1]; library: Prestwick) 0 | dopaminergic neuron differentiation score (ReNCell VM [2]; library: LOPAC) 0 | dopaminergic neuron differentiation score (ReNCell VM [2]; library: Prestwick) 0

CCN1CCCC1CNC(=O)c1cc(S(=O)(=O)CC)c(N)cc1OC (centres undefined) [Amisulpride]
inactive: neuronal differentiation score (ReNCell VM [1]; library: Prestwick) 0 | neuronal differentiation score (ReNCell VM [1]; library: Tocriscreen) 0 | dopaminergic neuron differentiation score (ReNCell VM [2]; library: Prestwick) 0 | dopaminergic neuron differentiation score (ReNCell VM [2]; library: Tocriscreen) 0

O=C(CCCN1CCC(O)(c2ccc(Cl)cc2)CC1)c1ccc(F)cc1 [Haloperidol]
inactive: neuronal differentiation score (ReNCell VM [1]; library: LOPAC) 1 | neuronal differentiation score (ReNCell VM [1]; library: Prestwick) 0 | dopaminergic neuron differentiation score (ReNCell VM [2]; library: LOPAC) 0 | dopaminergic neuron differentiation score (ReNCell VM [2]; library: Prestwick) 0

CCCCCCC(=O)OC1CC(C)(C)NC(C)(C)C1 [TMPH hydrochloride]
inactive: neuronal differentiation score (ReNCell VM [1]; library: LOPAC) 0 | neuronal differentiation score (ReNCell VM [1]; library: Tocriscreen) 0 | dopaminergic neuron differentiation score (ReNCell VM [2]; library: LOPAC) 0 | dopaminergic neuron differentiation score (ReNCell VM [2]; library: Tocriscreen) 0

CC12CC3CC(C)(C1)CC(N)(C3)C2 [Memantine hydrochloride]
inactive: neuronal differentiation score (ReNCell VM [1]; library: LOPAC) 0 | neuronal differentiation score (ReNCell VM [1]; library: Tocriscreen) 0 | dopaminergic neuron differentiation score (ReNCell VM [2]; library: LOPAC) 0 | dopaminergic neuron differentiation score (ReNCell VM [2]; library: Tocriscreen) 0

Clc1ccc(Cn2c(CN3CCCC3)nc3ccccc32)cc1 [Clemizole hydrochloride]
inactive: neuronal differentiation score (ReNCell VM [1]; library: LOPAC) 1 | neuronal differentiation score (ReNCell VM [1]; library: Prestwick) 1 | dopaminergic neuron differentiation score (ReNCell VM [2]; library: LOPAC) 1 | dopaminergic neuron differentiation score (ReNCell VM [2]; library: Prestwick) 0
